Results are given in words; binding and its absence hold for the method and conditions named. Binding seen in cells or lysates may run through a third protein. Some results given as binding are weak or reduced against the parent protein; the word gives no strength.
T1: Transketolase (TKT), overexpressed in KYSE30 cells (human) (UniProt P29401)
T1 sequence: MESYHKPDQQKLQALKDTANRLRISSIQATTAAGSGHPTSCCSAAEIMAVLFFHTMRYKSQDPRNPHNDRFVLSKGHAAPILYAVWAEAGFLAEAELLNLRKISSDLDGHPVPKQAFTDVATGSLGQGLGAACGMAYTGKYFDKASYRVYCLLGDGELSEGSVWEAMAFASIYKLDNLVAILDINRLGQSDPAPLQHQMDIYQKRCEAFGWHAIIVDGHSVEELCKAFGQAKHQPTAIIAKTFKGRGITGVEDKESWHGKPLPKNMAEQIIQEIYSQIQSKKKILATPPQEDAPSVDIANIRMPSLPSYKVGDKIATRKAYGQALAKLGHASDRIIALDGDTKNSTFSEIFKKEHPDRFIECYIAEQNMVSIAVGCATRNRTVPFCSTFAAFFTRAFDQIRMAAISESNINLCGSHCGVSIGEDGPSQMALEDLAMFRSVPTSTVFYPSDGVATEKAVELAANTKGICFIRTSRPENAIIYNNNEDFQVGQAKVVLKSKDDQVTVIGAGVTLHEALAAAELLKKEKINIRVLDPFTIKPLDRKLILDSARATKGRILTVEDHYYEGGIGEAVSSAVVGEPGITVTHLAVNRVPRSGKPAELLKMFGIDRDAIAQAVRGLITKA

The chains behind the UniProt entries cited, without tags or fusion partners.
UniProt P08047: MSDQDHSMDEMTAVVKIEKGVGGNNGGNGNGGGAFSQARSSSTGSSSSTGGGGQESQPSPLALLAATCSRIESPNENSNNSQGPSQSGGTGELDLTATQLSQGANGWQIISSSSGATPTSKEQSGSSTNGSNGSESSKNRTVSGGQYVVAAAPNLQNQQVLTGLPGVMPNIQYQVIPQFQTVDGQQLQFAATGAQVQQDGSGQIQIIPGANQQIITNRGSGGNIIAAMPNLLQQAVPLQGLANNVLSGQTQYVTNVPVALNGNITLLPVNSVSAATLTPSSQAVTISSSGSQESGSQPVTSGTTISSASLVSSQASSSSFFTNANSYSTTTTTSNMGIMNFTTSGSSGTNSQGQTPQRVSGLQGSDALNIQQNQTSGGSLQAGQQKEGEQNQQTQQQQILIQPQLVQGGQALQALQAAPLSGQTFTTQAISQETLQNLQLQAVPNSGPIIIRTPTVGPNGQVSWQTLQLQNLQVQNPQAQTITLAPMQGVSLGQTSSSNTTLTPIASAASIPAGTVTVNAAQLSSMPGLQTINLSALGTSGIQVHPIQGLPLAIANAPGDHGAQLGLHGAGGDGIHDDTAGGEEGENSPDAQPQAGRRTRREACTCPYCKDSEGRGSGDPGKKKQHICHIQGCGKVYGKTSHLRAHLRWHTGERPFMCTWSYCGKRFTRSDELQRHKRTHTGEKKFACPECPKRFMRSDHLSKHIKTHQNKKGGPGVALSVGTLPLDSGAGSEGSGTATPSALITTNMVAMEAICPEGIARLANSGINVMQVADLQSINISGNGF
UniProt P17096: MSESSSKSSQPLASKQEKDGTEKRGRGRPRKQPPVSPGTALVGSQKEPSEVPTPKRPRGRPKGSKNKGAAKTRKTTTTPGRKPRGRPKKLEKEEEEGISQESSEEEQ

B1: Transketolase (TKT), endogenous (enzyme, UniProt P29401 1-623)
chain: T1 sequence
B2: Transketolase (TKT), overexpressed in KYSE30 cells (enzyme, UniProt P29401 1-623)
chain: T1 sequence

How the values were obtained:
[1] = target: T1, Transketolase (TKT), overexpressed in KYSE30 cells (human); assay: co-IP; TKT-overexpressed KYSE30 cells; RIPA lysate, 800 ug lysate with 5 ug antibody against TKT or IgG overnight at 4 C, Protein-A/G beads 2 h, western blot
[2] = target: Transcription factor specificity protein 1 (Sp1) (human (endogenous in KYSE30)) (UniProt P08047); assay: co-IP; TKT-overexpressed KYSE30 cells; RIPA lysate, 800 ug lysate with 5 ug antibody against Sp1 or IgG overnight at 4 C, Protein-A/G beads 2 h, western blot
[3] = target: High-mobility group AT-hook 1 (HMGA1) (human (endogenous in KYSE30)) (UniProt P17096); assay: co-IP; endogenous proteins in KYSE30 cells; RIPA lysate, 800 ug lysate with 5 ug antibody against HMGA1 or IgG overnight at 4 C, Protein-A/G beads 2 h, western blot

| Molecule | binding [1] | binding [2] | binding [3] |
| --- | --- | --- | --- |
| High-mobility group AT-hook 1 (HMGA1) (from UniProt P17096 1-107) | no binding | binds | – |
| Transcription factor specificity protein 1 (Sp1) (from UniProt P08047 1-785) | no binding | – | binds |
| B1 | – | – | no binding |
| B2 | – | no binding | – |
